Experimental data taken from the supplement of paper PMC12819154, “High-throughput peptide-centric local stability assay extends protein–ligand identification to membrane proteins, tissues and bacteria” (Nature Structural & Molecular Biology, 2025).
Some of the results follow. Most values lie at the level of the controls, where differences are scatter.

Sequences of proteins named here, by UniProt entry; tags and fusion partners are left off. A change or cut given only in a name is not applied to a line headed by its entry.
UniProt O08784: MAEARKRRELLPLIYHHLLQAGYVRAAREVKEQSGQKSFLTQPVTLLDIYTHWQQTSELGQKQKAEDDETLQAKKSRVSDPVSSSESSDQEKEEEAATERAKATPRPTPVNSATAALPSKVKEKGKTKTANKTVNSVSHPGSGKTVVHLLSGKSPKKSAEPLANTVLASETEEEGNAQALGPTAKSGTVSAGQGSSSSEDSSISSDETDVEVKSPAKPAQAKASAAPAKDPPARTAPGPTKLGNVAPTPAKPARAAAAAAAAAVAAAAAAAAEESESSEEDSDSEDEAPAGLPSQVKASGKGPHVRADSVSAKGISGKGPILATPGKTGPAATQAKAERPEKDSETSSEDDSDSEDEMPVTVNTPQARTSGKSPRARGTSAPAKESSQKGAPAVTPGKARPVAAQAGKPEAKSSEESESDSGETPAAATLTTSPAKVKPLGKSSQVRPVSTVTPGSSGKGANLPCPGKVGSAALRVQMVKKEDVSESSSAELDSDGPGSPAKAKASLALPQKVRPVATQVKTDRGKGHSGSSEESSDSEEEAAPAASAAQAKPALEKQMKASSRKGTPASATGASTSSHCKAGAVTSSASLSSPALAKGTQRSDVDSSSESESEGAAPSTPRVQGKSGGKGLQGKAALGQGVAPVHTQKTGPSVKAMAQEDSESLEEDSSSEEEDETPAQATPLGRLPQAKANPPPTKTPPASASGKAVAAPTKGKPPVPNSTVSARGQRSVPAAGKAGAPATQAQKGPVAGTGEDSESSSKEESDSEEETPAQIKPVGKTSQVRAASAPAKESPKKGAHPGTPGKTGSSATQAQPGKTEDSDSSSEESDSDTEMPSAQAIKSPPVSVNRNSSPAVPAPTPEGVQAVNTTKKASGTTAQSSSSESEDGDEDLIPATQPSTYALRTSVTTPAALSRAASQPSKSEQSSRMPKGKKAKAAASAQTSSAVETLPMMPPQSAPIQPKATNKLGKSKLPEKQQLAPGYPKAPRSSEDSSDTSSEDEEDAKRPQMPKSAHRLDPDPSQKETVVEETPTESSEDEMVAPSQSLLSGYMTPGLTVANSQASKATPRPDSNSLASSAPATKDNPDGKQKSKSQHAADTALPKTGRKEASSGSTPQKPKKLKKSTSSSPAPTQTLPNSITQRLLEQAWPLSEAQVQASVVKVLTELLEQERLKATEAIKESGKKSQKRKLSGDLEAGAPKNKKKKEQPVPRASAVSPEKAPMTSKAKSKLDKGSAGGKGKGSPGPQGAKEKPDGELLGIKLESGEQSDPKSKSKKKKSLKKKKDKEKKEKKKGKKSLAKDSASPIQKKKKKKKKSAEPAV
UniProt O88569: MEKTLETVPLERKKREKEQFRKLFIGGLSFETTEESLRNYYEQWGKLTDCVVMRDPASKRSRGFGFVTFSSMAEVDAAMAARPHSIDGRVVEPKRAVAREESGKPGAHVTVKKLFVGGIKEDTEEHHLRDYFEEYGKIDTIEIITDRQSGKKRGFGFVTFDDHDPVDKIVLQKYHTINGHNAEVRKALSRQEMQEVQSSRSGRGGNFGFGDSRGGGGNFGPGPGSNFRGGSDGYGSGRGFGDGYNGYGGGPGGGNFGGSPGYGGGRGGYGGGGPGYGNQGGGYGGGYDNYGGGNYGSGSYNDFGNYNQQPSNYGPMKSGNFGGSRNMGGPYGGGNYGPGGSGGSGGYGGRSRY
UniProt O88668: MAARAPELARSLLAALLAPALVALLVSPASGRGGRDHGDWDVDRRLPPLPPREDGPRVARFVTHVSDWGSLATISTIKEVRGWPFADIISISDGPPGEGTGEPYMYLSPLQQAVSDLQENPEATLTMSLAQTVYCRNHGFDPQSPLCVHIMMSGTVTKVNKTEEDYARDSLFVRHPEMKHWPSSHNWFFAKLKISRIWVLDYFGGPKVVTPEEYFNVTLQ
UniProt O54782: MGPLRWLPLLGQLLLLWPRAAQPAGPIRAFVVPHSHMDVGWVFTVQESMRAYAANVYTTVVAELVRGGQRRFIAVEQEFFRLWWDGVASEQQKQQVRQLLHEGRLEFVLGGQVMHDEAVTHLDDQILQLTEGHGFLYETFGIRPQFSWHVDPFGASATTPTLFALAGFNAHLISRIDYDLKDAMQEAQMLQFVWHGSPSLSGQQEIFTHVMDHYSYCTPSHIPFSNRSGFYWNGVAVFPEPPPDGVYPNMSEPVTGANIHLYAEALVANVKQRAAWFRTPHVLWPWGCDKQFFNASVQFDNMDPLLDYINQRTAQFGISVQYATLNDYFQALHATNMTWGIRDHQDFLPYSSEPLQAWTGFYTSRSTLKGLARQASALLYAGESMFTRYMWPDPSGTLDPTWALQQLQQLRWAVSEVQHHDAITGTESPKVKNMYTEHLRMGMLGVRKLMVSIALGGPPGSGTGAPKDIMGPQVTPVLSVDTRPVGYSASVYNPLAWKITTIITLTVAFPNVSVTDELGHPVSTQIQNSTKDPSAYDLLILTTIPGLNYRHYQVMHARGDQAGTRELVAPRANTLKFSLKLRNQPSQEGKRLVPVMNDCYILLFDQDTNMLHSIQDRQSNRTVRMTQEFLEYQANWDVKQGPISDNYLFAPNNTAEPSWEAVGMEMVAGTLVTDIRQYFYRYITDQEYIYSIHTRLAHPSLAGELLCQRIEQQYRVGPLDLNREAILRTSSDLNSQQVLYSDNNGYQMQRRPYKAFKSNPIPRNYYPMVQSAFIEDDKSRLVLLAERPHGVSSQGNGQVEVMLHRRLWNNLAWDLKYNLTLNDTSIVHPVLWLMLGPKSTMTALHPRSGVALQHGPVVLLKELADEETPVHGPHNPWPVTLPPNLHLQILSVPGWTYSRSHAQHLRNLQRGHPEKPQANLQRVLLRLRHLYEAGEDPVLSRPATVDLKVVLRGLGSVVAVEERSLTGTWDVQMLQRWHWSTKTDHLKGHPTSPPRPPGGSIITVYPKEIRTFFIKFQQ
UniProt O70252: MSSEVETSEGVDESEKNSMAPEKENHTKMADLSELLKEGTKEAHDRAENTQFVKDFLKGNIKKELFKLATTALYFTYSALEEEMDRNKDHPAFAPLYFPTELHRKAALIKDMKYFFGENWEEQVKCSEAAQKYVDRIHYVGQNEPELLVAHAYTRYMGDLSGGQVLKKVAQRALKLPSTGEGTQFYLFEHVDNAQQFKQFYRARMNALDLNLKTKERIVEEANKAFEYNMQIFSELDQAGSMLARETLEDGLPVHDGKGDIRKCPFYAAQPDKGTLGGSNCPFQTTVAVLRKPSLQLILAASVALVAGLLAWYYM
UniProt P01804, whole entry: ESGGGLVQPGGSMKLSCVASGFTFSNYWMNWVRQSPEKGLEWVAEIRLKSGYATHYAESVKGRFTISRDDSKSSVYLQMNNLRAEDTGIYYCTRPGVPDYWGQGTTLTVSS
UniProt O88271, whole entry: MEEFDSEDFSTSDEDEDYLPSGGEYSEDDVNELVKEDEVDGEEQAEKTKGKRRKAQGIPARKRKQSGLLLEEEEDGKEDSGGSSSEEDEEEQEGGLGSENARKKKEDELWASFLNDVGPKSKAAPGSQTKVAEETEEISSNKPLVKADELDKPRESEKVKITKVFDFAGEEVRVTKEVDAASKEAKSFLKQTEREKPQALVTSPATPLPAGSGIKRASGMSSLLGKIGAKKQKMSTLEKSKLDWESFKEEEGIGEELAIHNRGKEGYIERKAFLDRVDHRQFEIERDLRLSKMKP
UniProt O70493: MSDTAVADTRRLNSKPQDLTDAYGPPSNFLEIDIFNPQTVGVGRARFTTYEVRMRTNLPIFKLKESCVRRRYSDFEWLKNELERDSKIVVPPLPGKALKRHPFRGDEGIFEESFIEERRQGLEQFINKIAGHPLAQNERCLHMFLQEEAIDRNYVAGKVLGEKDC
UniProt O35551: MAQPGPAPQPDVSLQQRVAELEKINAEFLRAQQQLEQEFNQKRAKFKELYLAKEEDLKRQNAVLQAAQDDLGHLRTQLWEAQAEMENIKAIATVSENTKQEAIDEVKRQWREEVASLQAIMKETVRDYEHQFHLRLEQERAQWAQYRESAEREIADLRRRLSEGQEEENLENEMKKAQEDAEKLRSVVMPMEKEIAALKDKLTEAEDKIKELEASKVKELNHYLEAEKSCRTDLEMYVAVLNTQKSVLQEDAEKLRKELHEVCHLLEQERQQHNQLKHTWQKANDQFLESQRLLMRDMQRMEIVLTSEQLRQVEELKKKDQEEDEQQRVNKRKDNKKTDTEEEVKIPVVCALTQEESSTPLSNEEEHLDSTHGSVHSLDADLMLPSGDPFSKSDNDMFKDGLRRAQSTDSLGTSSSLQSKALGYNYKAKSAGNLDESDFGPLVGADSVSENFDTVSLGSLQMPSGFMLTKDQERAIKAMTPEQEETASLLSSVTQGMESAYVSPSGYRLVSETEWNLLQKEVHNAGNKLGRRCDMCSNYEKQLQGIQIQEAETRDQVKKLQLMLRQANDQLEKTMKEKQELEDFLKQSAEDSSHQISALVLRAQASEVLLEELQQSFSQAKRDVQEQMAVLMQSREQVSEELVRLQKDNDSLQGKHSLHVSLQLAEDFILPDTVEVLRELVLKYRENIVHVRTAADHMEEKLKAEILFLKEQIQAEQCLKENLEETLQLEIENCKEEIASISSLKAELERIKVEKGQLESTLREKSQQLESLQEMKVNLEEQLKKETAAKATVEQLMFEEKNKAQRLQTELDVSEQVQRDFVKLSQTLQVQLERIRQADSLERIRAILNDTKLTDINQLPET
UniProt O88441: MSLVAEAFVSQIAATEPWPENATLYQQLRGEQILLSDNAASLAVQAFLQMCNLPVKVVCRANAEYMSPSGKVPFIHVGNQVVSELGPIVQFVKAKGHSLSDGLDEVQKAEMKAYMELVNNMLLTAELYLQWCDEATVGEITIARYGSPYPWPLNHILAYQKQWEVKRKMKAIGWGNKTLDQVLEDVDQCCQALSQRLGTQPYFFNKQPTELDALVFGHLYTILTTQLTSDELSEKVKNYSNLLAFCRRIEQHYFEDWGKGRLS
UniProt O35381: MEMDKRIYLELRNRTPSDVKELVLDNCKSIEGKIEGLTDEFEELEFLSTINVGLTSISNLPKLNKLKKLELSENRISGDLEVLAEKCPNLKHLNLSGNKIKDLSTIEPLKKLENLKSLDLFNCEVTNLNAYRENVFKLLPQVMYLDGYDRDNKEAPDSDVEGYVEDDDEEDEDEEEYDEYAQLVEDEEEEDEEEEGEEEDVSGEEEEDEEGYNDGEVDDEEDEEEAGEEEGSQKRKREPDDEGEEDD
UniProt O08810: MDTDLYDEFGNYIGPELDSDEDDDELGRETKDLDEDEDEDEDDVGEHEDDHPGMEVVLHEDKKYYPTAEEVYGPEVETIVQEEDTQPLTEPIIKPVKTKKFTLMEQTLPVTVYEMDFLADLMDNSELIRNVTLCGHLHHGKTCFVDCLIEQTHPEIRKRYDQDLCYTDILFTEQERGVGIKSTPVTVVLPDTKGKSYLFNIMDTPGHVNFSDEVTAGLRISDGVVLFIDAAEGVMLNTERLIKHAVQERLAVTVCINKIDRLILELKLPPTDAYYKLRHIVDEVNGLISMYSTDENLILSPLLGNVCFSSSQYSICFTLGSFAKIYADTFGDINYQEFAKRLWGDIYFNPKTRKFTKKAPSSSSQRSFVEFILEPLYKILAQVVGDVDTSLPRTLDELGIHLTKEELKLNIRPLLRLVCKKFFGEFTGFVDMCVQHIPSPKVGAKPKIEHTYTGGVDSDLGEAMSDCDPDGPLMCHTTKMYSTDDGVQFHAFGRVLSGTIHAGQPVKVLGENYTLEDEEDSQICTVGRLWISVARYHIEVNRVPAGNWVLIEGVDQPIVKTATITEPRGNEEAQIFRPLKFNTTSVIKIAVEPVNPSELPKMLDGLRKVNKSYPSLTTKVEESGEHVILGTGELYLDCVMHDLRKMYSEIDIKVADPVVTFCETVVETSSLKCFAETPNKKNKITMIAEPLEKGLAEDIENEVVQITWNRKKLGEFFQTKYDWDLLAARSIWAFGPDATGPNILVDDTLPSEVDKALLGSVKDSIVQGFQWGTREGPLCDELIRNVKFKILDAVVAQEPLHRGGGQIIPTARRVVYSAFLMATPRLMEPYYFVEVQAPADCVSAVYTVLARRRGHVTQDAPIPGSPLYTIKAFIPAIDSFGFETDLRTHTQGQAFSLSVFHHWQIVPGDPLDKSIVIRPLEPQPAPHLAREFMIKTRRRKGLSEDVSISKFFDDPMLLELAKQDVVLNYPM
UniProt O35857: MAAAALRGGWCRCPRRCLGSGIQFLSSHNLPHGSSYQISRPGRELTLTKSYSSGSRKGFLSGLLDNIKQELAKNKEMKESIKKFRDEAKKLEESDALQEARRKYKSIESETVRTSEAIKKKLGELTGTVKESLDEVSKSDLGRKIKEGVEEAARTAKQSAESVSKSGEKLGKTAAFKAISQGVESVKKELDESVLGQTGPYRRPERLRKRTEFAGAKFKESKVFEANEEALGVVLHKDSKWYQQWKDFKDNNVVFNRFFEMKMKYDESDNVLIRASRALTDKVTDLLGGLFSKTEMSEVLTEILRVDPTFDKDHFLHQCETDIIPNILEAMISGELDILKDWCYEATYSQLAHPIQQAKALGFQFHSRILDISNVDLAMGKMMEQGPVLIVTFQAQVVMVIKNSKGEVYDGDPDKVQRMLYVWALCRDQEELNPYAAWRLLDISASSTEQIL

Compound: CN[C@@H]1C[C@H]2O[C@@](C)([C@@H]1OC)n1c3ccccc3c3c4c(c5c6ccccc6n2c5c31)C(=O)NC4 [staurosporine]
Assay: log2 fold change of pooled soluble protein (PISA), ligand vs vehicle (log2 ratio); higher = more thermally stabilized
Details: ligand concentration: 20 uM; assay format: PISA pool 52.9/55.5/58.6 C

Target | log2 fold change of pooled soluble protein
UniProt O35648 | 0.304
UniProt O08583 | -0.0459
UniProt O08784 | 0.0288
UniProt G3X982 | -0.072
UniProt O88569 | 0.00944
UniProt O88668 | -0.0715
UniProt O54782 | -0.24
UniProt O88967 | -0.106
UniProt O88522 | -0.0325
UniProt P00186 | 0.774
UniProt O35445 | -0.577
UniProt O35435 | -0.199
UniProt O70252 | 0.178
UniProt O89053 | -0.0541
UniProt O55091 | 0.0728
UniProt O55023 | -0.0482
UniProt O55022 | 0.0606
UniProt O70439 | -0.0646

Target | log2 fold change of pooled soluble protein
UniProt O70494 | 0.168
UniProt P01804 | -0.158
UniProt O88271 | -0.0515
UniProt O70493 | -0.359
UniProt O35551 | 0.062
UniProt O88441 | 0.0218
UniProt G3X9Z4 | -0.0716
UniProt O88986 | -0.055
UniProt O54824 | 0.00307
UniProt O88393 | 0.0586
UniProt O88587 | 0.0895
UniProt O89090 | -0.239
UniProt O89001 | -0.137
UniProt O88876 | 0.0434
UniProt O35381 | -0.0517
UniProt O08810 | 0.031
UniProt O35857 | -0.0323
UniProt O70303 | 0.2

As a short view, some entries already given.
Target | log2 fold change of pooled soluble protein
UniProt O88271 | -0.0515
UniProt O70493 | -0.359
